The record followed here is PubChem BioAssay AID2685 (National Center for Advancing Translational Sciences (NCATS), 2010).

A short description of the experiment: qHTS Assay for Lipid Storage Modulators in Drosophila S3 Cells.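 On cell number change: cells counted by Cell Tracker Red CMTPX staining in the red channel.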 The note with it: BODIPY lipid droplet fluorescence, 18-24 h; for cell number change: measured here: cell count max response, cells fed with added oleic acid. The essentials:
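Drosophila S3 cells got compounds at several concentrations plus oleic acid (400 uM solution). Laser-scanning cytometry with 488 nm excitation read lipid droplets at 500-530 nm and cells at 575-640 nm. Percent activity was relative to 20 uM Triacsin C.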

The mark [1] stands for this setting: measured here: lipid fluorescence (Fed channel) AC50, cells fed with added oleic acid.
The mark [2] stands for this setting: measured here: cell number channel AC50, cells fed with added oleic acid.

SMILES strings stand for the structures. Some of the results follow. The main result of the screen is listed elsewhere. These columns were measured beside it and carry no call. The list favours compounds with an active or inconclusive main result. Potencies come from curve fits of mixed quality, noted in brackets.

One may read the AC50 as the midpoint of the concentration-response curve, whichever way the signal moves. Regarding `COc1cc(-c2nc3sc(C)c(C)c3c(=O)o2)cc(OC)c1OC`, the cell number change is 27.4%. In addition, the AC50 under setting [1] is 29.1 µM [rising, partial curve].

Consider `O=C(COc1ccc2ccccc2c1)N/N=C/C1CC=CCC1` (stereo unspecified), for which the cell number change stood at 23.7%. In addition, under setting [1], the AC50 is 4.11 µM [rising, single point].

As to `CCOc1ccc(OCCC(=O)N(CCC2=CCCCC2)c2c(N)n(Cc3ccccc3)c(=O)[nH]c2=O)cc1`, the cell number change was -23.9%.

Take `Cc1ccc(CONC(=O)c2cccc([N+](=O)[O-])c2)cc1`: the cell number change is -31.2%. For the same molecule, under setting [2], the AC50 is 11.6 µM [falling, single point].

For `CCCCn1c(N)c(N(CC(C)C)C(=O)c2cc(Cl)nc3ccccc23)c(=O)[nH]c1=O`, the cell number change was -25%. Besides, the AC50 under setting [2] was 4.11 µM [falling, full curve, poor fit].

As for `CCOC(=O)c1sc(Nc2ccccc2)nc1C`, the cell number change stood at 74.5%. Moreover, the AC50 under setting [2] is 6.51 µM [falling, single point]. For the same molecule, the AC50 under setting [1] was 6.51 µM [falling, single point].

Regarding `Nc1ccc(-c2nnc(-c3ccc(N)cc3)o2)cc1`, the cell number change was 4.93%. Under setting [1], the AC50 is 0.58 µM [rising, partial curve, poor fit].

For the molecule `O=c1c2ccccc2nc(/C=C/c2ccc(Cl)cc2)n1CCO`, the cell number change was -30.8%. Further, under setting [2], the AC50 is 0.0651 µM [falling, full curve, poor fit].

In the case of `COc1ccc(/C=C/C(=O)OCC(=O)NCc2ccccc2)cc1OC`, the cell number change amounted to 39.7%. For the same molecule, under setting [2], the AC50 is 29.1 µM [rising, partial curve].

With `C(=N\Nc1nc2ccccc2[nH]1)/c1cccc2nccnc12`, the cell number change stood at 39.4%. Besides, the concentration at half-maximal activity (AC50) under setting [2] is 29.1 µM [rising, single point].

On to `Cc1ccc(NS(=O)(=O)c2cc(C(=O)N3CCOCC3)ccc2C)cc1`, for which the cell number change was -39.8%. Besides, the AC50 under setting [2] was 8.2 µM [falling, partial curve]. Also, under setting [1], the AC50 was 29.1 µM [falling, single point].

Turning to `Cc1cc(=O)[nH]n(CCO)c1=O`, the cell number change came to 9.49%.

Consider `CCN(C(=O)COC(=O)c1ccc2ccccc2c1)c1c(N)n(Cc2ccccc2)c(=O)[nH]c1=O`, for which the cell number change was -37%. Further, the AC50 under setting [2] was 29.1 µM [falling, single point]. Further, the half-maximal activity concentration (AC50) under setting [1] was 29.1 µM [falling, single point].

On to `O=C1c2cccnc2C(=O)N1Cc1ccc(S(=O)(=O)NCc2ccco2)cc1`, for which the cell number change was -0.917%.

Turning to `CCCN1C(=O)c2ccccc2NC1c1ccc(OC)cc1OC` (stereo unspecified), the cell number change is -4.82%. For the same molecule, the AC50 under setting [1] was 7.31 µM [rising, partial curve].

In the case of `CC(=O)Nc1ccc(NC(=O)C2CCCN(S(=O)(=O)c3ccc(Cl)cc3)C2)cc1` (stereo unspecified), the cell number change was 47.4%. In addition, under setting [2], the AC50 is 29.1 µM [rising, single point]. Further, the AC50 under setting [1] was 0.58 µM [rising, single point].

Consider `CC(C)(C)C1CCc2c(sc(NC(=O)C3CC=CCC3C(=O)O)c2C#N)C1` (stereo unspecified), for which the cell number change was -1.1%. Further, under setting [1], the AC50 is 4.11 µM [rising, partial curve].

Turning to `NC(=O)Nc1ccc(C(=O)OCC(=O)Nc2cccc(S(=O)(=O)NC3=NCCC3)c2)cc1`, the cell number change was -6.1%.

As for `CC(C)(C)c1csc(NC(=O)c2cccnc2)n1`, the cell number change turned out to be 12.6%.

Consider `CCNC(=O)CN1c2cccc3cccc(c23)S1(=O)=O`, for which the cell number change was -8.62%.

Turning to `CCCNC(=O)N(CCOC)CC1CCCN(C2Cc3ccccc3C2)C1` (stereo unspecified), the cell number change is 3.28%. Further, under setting [1], the AC50 was 0.58 µM [rising, single point].

In the case of `CCCS(=O)(=O)N1CCN(C(=O)COc2ccccc2)CC1`, the AC50 under setting [2] is 2.91 µM [rising, single point].

Take `CNc1ccc(C(O)(C(F)(F)F)C(F)(F)F)cc1C(O)(C(F)(F)F)C(F)(F)F`: the cell number change is -36.2%. Under setting [2], the AC50 was 8.2 µM [falling, partial curve, poor fit]. For the same molecule, the AC50 under setting [1] is 0.206 µM [falling, full curve].

Take `COc1ccc(Cl)c2sc(NC(=O)C3=COCCO3)nc12`: the cell number change was 52.2%. Under setting [2], the AC50 was 18.4 µM [rising, single point].

Consider `CC(C)N(C(=O)CSc1n[nH]c(=O)n1CCc1ccccc1)C(C)C`, for which the cell number change is -6.67%.

For `O=C(c1cccc(-c2ccc(O)cc2)c1)N1CCOCC1`, the cell number change was -44.9%. Also, the AC50 under setting [2] was 20.6 µM [falling, partial curve]. The AC50 under setting [1] was 0.231 µM [falling, full curve].

`OCCN1CCN(C(=S)c2ccc(Cl)cc2)CC1`: the cell number change is -115%. The concentration at half-maximal activity (AC50) under setting [2] is 25.9 µM [falling, partial curve]. Under setting [1], the AC50 was 20.6 µM [falling, partial curve].

With `COc1cc(NC(=O)c2cccc([N+](=O)[O-])c2C)ccc1NC(=O)c1ccco1`, the cell number change was determined as 2.59%. In addition, under setting [1], the AC50 is 8.2 µM [rising, partial curve].

For the molecule `Clc1ccc(Cn2cccn2)cn1`, the cell number change is 1.57%. For the same molecule, the AC50 under setting [1] was 2.91 µM [falling, partial curve, poor fit].

Consider `N#CC1=C(N)Oc2nc(-c3ccccc3)[nH]c2C1c1cccnc1` (stereo unspecified), for which the cell number change was found to be 2.33%. Moreover, the concentration at half-maximal activity (AC50) under setting [1] was 0.517 µM [rising, partial curve, poor fit].

On to `O/N=C\c1cccn1-c1ccc(Br)cc1`, for which the cell number change was -11.3%. For the same molecule, the AC50 under setting [1] is 0.58 µM [falling, single point].

As for `O=C(CCC(=O)OCC(=O)c1cccc([N+](=O)[O-])c1)Nc1ccccc1Cl`, the cell number change is -10.3%. In addition, under setting [2], the AC50 is 0.13 µM [falling, full curve, poor fit]. Further, the half-maximal activity concentration (AC50) under setting [1] was 1.46 µM [falling, full curve].

In the case of `CCc1c(C)c2ccc(OCC(=O)NCC3CCC(C(=O)O)CC3)c(C)c2oc1=O` (stereo unspecified), the cell number change is 41.7%. Besides, the AC50 under setting [2] was 29.1 µM [rising, single point]. Besides, under setting [1], the AC50 is 4.61 µM [falling, single point].

Turning to `CCCCC1CCC(C(=O)OCC(=O)Nc2ccc(S(N)(=O)=O)cc2)CC1` (stereo unspecified), the AC50 reads like this: under setting [2], 1.16 µM [falling, full curve]; under setting [1], 1.46 µM [falling, partial curve].

On to `COc1ccccc1-c1cn[nH]c1-c1ccc(OCc2ccccc2)cc1O`, for which the cell number change was -58.6%. Also, the AC50 under setting [2] is 16.4 µM [falling, single point]. The AC50 under setting [1] was 18.4 µM [falling, single point].

With `Cc1ccc(NC(=O)N2CCN(c3ncccc3C(F)(F)F)CC2)cc1`, the cell number change worked out at 33.1%. For the same molecule, the AC50 under setting [2] was 2.59 µM [rising, full curve]. Further, the AC50 under setting [1] is 2.91 µM [rising, full curve, poor fit].

Consider `COC(=O)CN1C(=O)[C@H]2[C@@H](c3ccc(C)o3)N3C(=O)CN(CC4CC4)C(=O)[C@@]3(Cc3ccccc3)[C@H]2C1=O`, for which the cell number change amounted to 24.9%.
